Test results from the supplement of paper PMC6078165.
± gives the standard deviation of the averaged measurements. The reference is the same well before dosing, and untreated signal decays as well.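 Fibroblast labels denote human fibroblasts, mainly primary ones from uterus (C12385, HUF), lung (H6013), bone (Hs27A), adrenal (HADF) and skin (WS1), plus mammary HMF and breast cancer-associated Hs343T. Cancer cells are basal-like or mesenchymal-like triple-negative breast cancer lines. A hit is a response shift exceeding 3x replicate standard deviation. The tissue of the other fibroblasts is not given here.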

Tested on: MDAMB231
Experiment: relative JC-1 red fluorescence (viability) vs pre-drug, coculture with fibroblast (fraction); higher = more viable cancer cells
Protocol: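 JC-1 labelled TNBC cells cocultured 1:1 (1,500 cells each) with CellTrace Violet stained primary or stromal fibroblasts in 384-well plates in FluoroBrite medium, treated with one of 42 anticancer drugs at 0.1, 1, 10 or 100 uM. JC-1 red fluorescence (mitochondrial integrity in cancer cells only) was read by plate reader every 8 h for 72 h. Values are normalised to each well's pre-drug value. The stock of one drug was tenfold lower, so its dose labels may be too high.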

CC/C(=C(\c1ccccc1)c1ccc(OCCN(C)C)cc1)c1ccccc1 [Tamoxifen]
relative JC-1 red fluorescence
Settings	8 h	16 h	24 h	32 h	40 h	48 h	56 h	64 h	72 h
0.1 µM, coculture fibroblast: C12385	0.7856 ± 0.0025	0.703 ± 0.0041	0.68 ± 0.0088	0.605 ± 0.031	0.551 ± 0.014	0.527 ± 0.008	0.481 ± 0.0067	0.4768 ± 0.0034	0.4583 ± 0.0013
0.1 µM, coculture fibroblast: H6013	0.9104 ± 0.0072	0.8 ± 0.03	0.753 ± 0.032	0.736 ± 0.039	0.687 ± 0.059	0.661 ± 0.083	0.648 ± 0.093	0.636 ± 0.09	0.598 ± 0.086
0.1 µM, coculture fibroblast: H6019	0.755 ± 0.02	0.664 ± 0.019	0.64 ± 0.03	0.592 ± 0.035	0.537 ± 0.026	0.517 ± 0.035	0.478 ± 0.033	0.471 ± 0.025	0.431 ± 0.029
0.1 µM, coculture fibroblast: H6076	0.86626 ± 0.00012	0.772 ± 0.025	0.735 ± 0.049	0.719 ± 0.064	0.696 ± 0.08	0.677 ± 0.1	0.66 ± 0.13	0.653 ± 0.13	0.651 ± 0.13
0.1 µM, coculture fibroblast: H6231	0.9297 ± 0.004	0.8415 ± 0.0034	0.75057 ± 5.4e-05	0.715 ± 0.024	0.664 ± 0.032	0.632 ± 0.054	0.588 ± 0.085	0.563 ± 0.095	0.544 ± 0.11
0.1 µM, coculture fibroblast: HADF	0.8862 ± 0.00034	0.8136 ± 0.0044	0.762 ± 0.014	0.731 ± 0.013	0.679 ± 0.02	0.639 ± 0.028	0.618 ± 0.028	0.596 ± 0.02	0.546 ± 0.019
0.1 µM, coculture fibroblast: HCFa	0.8856 ± 0.0082	0.795 ± 0.011	0.7504 ± 0.0043	0.709 ± 0.014	0.655 ± 0.0081	0.598 ± 0.015	0.5699 ± 0.0049	0.532 ± 0.0059	0.4834 ± 0.0024
0.1 µM, coculture fibroblast: HCPF	0.874 ± 0.024	0.793 ± 0.041	0.724 ± 0.073	0.719 ± 0.069	0.679 ± 0.079	0.643 ± 0.078	0.609 ± 0.095	0.587 ± 0.089	0.569 ± 0.092
0.1 µM, coculture fibroblast: HHSteC	0.9212 ± 0.0091	0.861 ± 0.031	0.813 ± 0.036	0.773 ± 0.046	0.722 ± 0.054	0.7 ± 0.063	0.661 ± 0.071	0.631 ± 0.079	0.596 ± 0.073
0.1 µM, coculture fibroblast: HMF	0.8911 ± 0.0063	0.783 ± 0.0092	0.682 ± 0.024	0.642 ± 0.022	0.579 ± 0.0095	0.544 ± 0.01	0.4961 ± 0.0044	0.4709 ± 0.0018	0.4428 ± 0.0031
0.1 µM, coculture fibroblast: HPFa	0.9529 ± 0.0031	0.891 ± 0.011	0.829 ± 0.0088	0.772 ± 0.013	0.741 ± 0.02	0.684 ± 0.029	0.622 ± 0.021	0.578 ± 0.016	0.523 ± 0.017
0.1 µM, coculture fibroblast: HUF	0.873 ± 0.012	0.771 ± 0.033	0.755 ± 0.042	0.644 ± 0.066	0.582 ± 0.076	0.547 ± 0.082	0.497 ± 0.085	0.485 ± 0.079	0.452 ± 0.085
0.1 µM, coculture fibroblast: Hs5	0.8671 ± 0.0082	0.771 ± 0.031	0.728 ± 0.017	0.682 ± 0.011	0.6387 ± 0.0017	0.5908 ± 0.0045	0.544 ± 0.0079	0.518 ± 0.0086	0.487 ± 0.017
0.1 µM, coculture fibroblast: Hs27A	0.86709 ± 0.00046	0.8063 ± 0.0031	0.75514 ± 0.00056	0.7349 ± 0.0066	0.678 ± 0.015	0.618 ± 0.026	0.613 ± 0.017	0.587 ± 0.023	0.53 ± 0.02
0.1 µM, coculture fibroblast: Hs343T	0.902 ± 0.054	0.797 ± 0.095	0.717 ± 0.14	0.684 ± 0.15	0.646 ± 0.17	0.607 ± 0.18	0.557 ± 0.19	0.54 ± 0.2	0.521 ± 0.2
0.1 µM, coculture fibroblast: WS1	0.756 ± 0.0083	0.649 ± 0.019	0.598 ± 0.027	0.536 ± 0.0056	0.478 ± 0.019	0.449 ± 0.019	0.391 ± 0.035	0.378 ± 0.037	0.355 ± 0.043
1 µM, coculture fibroblast: C12385	0.7847 ± 0.0064	0.7385 ± 0.0032	0.741 ± 0.018	0.6842 ± 0.0048	0.604 ± 0.022	–	–	–	–
1 µM, coculture fibroblast: H6013	0.908 ± 0.029	0.826 ± 0.04	0.79 ± 0.039	0.76 ± 0.036	0.718 ± 0.038	–	–	–	–
1 µM, coculture fibroblast: H6019	0.773 ± 0.067	0.753 ± 0.059	0.728 ± 0.059	0.689 ± 0.057	0.648 ± 0.07	–	–	–	–
1 µM, coculture fibroblast: H6076	0.865 ± 0.022	0.799 ± 0.011	0.78175 ± 0.0006	0.7621 ± 0.0052	0.721 ± 0.02	–	–	–	–
1 µM, coculture fibroblast: H6231	0.906 ± 0.042	0.833 ± 0.075	0.793 ± 0.093	0.763 ± 0.094	0.715 ± 0.1	–	–	–	–
1 µM, coculture fibroblast: HADF	0.8804 ± 0.008	0.828 ± 0.013	0.792 ± 0.0092	0.7521 ± 0.0055	0.7235 ± 0.0065	–	–	–	–
1 µM, coculture fibroblast: HCFa	0.915 ± 0.0097	0.8585 ± 0.0085	0.831 ± 0.026	0.81 ± 0.026	0.752 ± 0.031	–	–	–	–
1 µM, coculture fibroblast: HCPF	0.888 ± 0.013	0.791 ± 0.026	0.771 ± 0.036	0.752 ± 0.03	0.704 ± 0.032	–	–	–	–
1 µM, coculture fibroblast: HHSteC	0.9278 ± 0.0025	0.8954 ± 0.0047	0.8625 ± 0.0014	0.8374 ± 0.0065	–	–	–	–	–
1 µM, coculture fibroblast: HMF	0.877 ± 0.022	0.795 ± 0.025	0.7777 ± 0.00096	0.7468 ± 0.0012	–	–	–	–	–
1 µM, coculture fibroblast: HPFa	0.967 ± 0.013	0.91825 ± 2.9e-05	0.89 ± 0.0095	0.8375 ± 0.0029	–	–	–	–	–
1 µM, coculture fibroblast: HUF	0.882 ± 0.0088	0.8 ± 0.028	0.821 ± 0.038	0.708 ± 0.028	–	–	–	–	–
1 µM, coculture fibroblast: Hs5	0.8981 ± 0.0082	0.85 ± 0.017	0.799 ± 0.037	0.767 ± 0.027	–	–	–	–	–
1 µM, coculture fibroblast: Hs27A	0.8985 ± 0.0021	0.8459 ± 0.0049	0.805 ± 0.016	0.776 ± 0.021	–	–	–	–	–
1 µM, coculture fibroblast: Hs343T	0.899 ± 0.05	0.795 ± 0.071	0.756 ± 0.061	0.728 ± 0.048	–	–	–	–	–
1 µM, coculture fibroblast: WS1	0.768 ± 0.0094	0.713 ± 0.0077	0.689 ± 0.014	0.608 ± 0.016	–	–	–	–	–
